In article PMC5930937:
No constants are given. Whether binding was seen depends on the method and setting. Binding seen in cells or lysates may run through a third protein. Some results given as binding are weak or reduced against the parent protein; the word gives no strength.

The chains behind the UniProt entries cited, without tags or fusion partners. Where a name states a change or a piece, a line headed by the entry shows the natural chain unless it says otherwise.
UniProt O95180: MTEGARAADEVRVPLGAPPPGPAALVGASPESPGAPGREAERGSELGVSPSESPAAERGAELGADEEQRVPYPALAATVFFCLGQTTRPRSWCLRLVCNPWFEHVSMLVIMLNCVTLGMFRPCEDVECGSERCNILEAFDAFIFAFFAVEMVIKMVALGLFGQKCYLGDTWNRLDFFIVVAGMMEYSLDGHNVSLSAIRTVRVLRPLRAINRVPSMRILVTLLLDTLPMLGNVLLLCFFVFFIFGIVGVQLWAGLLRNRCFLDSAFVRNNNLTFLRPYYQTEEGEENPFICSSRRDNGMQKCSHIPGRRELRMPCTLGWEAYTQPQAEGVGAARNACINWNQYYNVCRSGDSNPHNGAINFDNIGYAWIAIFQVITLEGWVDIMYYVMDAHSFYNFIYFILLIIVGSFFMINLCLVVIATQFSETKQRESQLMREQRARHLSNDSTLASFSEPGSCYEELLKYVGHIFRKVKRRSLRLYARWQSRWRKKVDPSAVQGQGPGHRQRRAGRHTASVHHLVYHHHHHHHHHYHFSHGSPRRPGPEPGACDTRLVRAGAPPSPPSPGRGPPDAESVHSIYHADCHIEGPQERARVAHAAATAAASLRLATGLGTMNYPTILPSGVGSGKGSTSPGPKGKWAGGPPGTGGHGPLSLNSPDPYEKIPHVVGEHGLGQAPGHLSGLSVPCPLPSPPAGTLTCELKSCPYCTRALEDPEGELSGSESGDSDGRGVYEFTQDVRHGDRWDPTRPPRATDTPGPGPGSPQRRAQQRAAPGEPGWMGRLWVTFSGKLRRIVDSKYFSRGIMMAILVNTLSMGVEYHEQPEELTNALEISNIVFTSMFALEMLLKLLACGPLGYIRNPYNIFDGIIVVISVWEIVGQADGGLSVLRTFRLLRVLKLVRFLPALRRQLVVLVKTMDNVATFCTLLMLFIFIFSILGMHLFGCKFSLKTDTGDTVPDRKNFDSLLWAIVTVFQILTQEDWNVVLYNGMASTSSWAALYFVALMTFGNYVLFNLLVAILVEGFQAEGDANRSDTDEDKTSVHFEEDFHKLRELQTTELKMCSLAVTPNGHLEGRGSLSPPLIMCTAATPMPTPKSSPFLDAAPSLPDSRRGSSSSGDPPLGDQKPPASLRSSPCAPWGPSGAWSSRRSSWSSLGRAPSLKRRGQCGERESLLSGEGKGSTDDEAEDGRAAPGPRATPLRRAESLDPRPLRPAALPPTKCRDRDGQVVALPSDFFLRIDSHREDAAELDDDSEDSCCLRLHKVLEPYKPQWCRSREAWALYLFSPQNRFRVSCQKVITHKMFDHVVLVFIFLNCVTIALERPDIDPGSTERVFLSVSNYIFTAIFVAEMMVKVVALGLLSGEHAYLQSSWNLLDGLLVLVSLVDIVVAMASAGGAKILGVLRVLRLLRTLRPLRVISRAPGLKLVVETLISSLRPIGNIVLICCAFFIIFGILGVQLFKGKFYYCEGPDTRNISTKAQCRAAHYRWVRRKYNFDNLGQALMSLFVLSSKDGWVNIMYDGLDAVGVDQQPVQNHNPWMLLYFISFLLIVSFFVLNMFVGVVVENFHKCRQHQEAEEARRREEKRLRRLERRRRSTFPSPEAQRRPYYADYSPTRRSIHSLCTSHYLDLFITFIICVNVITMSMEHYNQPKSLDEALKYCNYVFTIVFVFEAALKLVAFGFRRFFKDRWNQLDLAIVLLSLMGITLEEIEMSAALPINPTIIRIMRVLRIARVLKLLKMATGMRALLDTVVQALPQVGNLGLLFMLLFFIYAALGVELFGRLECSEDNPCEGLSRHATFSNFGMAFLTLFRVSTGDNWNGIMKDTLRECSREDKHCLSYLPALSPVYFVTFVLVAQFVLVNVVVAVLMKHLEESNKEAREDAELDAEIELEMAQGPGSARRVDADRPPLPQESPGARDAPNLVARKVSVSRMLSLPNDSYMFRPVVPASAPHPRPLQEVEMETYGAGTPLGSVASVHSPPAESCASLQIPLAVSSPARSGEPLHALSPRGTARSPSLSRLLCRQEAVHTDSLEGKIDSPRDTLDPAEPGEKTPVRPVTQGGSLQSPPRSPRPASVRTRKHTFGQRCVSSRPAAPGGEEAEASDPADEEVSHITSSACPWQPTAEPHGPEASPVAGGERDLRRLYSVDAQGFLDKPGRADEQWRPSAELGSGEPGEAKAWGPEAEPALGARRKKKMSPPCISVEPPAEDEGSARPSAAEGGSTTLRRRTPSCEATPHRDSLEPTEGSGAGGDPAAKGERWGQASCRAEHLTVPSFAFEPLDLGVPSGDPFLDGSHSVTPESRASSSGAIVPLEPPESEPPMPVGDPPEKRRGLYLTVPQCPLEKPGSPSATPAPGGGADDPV
UniProt Q01484: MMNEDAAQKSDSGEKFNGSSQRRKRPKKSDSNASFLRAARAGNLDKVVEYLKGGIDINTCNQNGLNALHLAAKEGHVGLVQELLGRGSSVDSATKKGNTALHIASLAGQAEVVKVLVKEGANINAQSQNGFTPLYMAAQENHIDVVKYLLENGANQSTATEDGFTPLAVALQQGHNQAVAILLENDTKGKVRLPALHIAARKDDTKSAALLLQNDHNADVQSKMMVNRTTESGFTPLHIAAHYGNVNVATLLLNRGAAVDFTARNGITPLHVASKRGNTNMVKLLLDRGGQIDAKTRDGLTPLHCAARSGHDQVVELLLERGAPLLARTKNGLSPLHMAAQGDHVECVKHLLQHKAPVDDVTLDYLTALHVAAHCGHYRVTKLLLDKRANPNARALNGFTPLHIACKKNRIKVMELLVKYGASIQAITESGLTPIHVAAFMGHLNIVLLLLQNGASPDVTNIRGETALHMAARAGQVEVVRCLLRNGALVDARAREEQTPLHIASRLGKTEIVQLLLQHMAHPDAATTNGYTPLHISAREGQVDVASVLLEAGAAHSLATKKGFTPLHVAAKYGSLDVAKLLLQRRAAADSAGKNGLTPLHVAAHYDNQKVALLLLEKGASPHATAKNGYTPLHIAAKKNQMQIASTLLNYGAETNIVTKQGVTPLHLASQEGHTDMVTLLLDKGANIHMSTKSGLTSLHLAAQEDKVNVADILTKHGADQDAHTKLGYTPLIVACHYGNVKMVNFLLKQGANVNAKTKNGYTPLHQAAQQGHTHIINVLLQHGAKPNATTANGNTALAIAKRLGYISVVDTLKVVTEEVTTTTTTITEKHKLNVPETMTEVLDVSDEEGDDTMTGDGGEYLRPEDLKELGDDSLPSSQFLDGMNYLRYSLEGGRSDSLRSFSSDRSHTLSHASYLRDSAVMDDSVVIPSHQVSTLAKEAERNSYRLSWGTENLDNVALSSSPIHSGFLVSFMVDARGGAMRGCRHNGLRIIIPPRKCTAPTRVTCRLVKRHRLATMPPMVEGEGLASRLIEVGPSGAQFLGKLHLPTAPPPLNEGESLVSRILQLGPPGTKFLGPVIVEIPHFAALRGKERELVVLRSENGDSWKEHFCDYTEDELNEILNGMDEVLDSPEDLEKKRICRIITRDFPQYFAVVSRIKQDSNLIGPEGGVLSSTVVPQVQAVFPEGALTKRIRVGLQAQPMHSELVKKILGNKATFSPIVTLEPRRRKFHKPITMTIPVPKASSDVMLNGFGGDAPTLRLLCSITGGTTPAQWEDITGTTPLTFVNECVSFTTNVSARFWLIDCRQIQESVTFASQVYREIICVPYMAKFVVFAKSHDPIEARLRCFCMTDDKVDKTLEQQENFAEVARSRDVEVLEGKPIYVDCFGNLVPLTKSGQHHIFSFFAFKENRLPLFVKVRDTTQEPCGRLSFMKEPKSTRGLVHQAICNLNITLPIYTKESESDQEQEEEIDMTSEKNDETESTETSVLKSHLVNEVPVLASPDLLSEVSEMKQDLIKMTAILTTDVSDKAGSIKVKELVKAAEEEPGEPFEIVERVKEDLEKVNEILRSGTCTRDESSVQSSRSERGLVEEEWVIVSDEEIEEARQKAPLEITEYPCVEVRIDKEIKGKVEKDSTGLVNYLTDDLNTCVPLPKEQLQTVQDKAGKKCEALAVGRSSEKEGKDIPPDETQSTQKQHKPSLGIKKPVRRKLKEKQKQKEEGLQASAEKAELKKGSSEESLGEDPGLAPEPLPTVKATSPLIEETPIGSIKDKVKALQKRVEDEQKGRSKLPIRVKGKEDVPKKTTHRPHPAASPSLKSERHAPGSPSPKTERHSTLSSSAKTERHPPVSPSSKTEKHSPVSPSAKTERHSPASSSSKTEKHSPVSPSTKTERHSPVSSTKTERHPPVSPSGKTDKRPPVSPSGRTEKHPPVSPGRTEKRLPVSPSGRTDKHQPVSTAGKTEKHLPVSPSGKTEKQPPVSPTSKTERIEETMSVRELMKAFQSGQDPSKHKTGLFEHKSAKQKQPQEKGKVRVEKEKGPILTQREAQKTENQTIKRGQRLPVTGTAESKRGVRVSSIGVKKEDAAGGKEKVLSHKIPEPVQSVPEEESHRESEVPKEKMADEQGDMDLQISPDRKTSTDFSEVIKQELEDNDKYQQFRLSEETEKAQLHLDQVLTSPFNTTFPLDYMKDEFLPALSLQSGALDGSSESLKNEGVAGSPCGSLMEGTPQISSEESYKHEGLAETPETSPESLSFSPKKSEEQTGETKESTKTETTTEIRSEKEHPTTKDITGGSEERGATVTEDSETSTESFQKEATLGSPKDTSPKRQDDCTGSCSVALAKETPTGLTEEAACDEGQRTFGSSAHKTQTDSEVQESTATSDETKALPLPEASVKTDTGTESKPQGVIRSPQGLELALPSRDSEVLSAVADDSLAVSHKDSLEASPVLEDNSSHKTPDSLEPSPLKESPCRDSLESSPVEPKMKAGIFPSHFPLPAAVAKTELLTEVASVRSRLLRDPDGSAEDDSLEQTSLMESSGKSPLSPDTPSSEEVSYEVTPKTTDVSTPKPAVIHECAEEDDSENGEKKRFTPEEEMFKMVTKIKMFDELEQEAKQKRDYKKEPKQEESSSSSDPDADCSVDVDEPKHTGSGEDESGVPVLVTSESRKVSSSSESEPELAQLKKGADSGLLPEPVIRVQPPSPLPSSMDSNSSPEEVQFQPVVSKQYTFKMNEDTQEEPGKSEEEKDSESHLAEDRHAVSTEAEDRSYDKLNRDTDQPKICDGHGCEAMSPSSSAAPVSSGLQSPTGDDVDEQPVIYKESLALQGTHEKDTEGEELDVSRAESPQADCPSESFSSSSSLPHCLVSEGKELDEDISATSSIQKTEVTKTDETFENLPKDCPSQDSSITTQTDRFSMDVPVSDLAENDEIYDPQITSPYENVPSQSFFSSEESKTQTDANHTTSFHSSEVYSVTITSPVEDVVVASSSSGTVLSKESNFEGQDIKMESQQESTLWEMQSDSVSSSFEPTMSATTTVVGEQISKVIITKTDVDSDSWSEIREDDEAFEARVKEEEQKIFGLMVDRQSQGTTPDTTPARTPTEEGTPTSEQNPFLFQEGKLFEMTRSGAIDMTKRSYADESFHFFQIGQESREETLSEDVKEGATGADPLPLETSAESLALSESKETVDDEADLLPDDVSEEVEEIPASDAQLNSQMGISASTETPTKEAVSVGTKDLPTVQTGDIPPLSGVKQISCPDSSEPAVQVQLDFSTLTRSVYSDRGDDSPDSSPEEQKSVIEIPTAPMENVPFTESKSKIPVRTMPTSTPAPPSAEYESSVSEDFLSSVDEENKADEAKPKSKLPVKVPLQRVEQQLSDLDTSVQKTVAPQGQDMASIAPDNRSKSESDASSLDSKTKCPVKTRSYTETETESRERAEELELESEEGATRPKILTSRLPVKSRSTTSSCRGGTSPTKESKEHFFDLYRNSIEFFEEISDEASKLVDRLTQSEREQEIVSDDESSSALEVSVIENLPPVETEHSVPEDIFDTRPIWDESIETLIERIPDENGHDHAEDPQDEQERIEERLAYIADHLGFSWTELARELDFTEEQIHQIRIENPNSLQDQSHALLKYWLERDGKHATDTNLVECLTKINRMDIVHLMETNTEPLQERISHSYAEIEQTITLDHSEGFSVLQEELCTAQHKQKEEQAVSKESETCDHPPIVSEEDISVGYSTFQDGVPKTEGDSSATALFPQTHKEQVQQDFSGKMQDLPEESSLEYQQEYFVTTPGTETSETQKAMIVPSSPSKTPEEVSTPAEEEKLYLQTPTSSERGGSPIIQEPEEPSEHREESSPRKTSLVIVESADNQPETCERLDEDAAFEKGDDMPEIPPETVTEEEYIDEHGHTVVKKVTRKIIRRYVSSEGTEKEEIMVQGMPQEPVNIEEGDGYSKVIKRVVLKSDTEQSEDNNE

Assays:
[1] = biological target: Cav3.1-GFP ∆CT (1875–2377) (human) (UniProt O43497); assay: co-IP; anti-GFP immunoprecipitates of GFP-tagged channels expressed in tsA-201 cells (modified RIPA buffer, Protein G/A beads, overnight 4 °C) probed for endogenous spectrins or ankyrin B by Western blot
[2] = biological target: Cav3.1-GFP ∆CT (1851–1875) (human) (UniProt O43497); assay: as above
[3] = biological target: Cav3.1-GFP wild type (human) (UniProt O43497); assay: as above
[4] = biological target: Cav3.2-GFP ∆CT (1860–1884) (human) (UniProt O95180); assay: as above
[5] = biological target: Cav3.2-GFP wild type (human) (UniProt O95180); assay: as above
[6] = biological target: Cav3.2 T-type calcium channel, mouse brain (mouse (endogenous in whole brain)) (UniProt O88427); assay: co-IP; Cav3.1 or Cav3.2 immunoprecipitates from mouse whole brain lysates (modified RIPA buffer, Protein G/A beads, overnight 4 °C) probed for SPTAN1 by Western blot

Measured: binding

spectrin αII (SPTAN1), tsA-201 cells (from UniProt Q13813 1-2472)
not listed: [6]
binds: all other assays above

ankyrin B, tsA-201 cells (from UniProt Q01484 1-3957)
binds: [2] | [3] | [4] | [5]

spectrin-αII (SPTAN1), mouse brain (from UniProt P16546 1-2472)
binds: [6]
